Holding throughout (test): co-IP; FHC-PBLD cell lysate (1000 μg) incubated with 2 μg of anti-PBLD, anti-IKKβ or anti-IKKα antibody or control IgG and 20 μL protein A/G magnetic beads overnight at 4 °C; washed three times with lysis buffer; western blot
For orientation: In western blotting, separated proteins are transferred to a membrane and probed.

The target in experiment [1] is T1, IKKα (human (endogenous in FHC)) (UniProt O15111).
T1 sequence: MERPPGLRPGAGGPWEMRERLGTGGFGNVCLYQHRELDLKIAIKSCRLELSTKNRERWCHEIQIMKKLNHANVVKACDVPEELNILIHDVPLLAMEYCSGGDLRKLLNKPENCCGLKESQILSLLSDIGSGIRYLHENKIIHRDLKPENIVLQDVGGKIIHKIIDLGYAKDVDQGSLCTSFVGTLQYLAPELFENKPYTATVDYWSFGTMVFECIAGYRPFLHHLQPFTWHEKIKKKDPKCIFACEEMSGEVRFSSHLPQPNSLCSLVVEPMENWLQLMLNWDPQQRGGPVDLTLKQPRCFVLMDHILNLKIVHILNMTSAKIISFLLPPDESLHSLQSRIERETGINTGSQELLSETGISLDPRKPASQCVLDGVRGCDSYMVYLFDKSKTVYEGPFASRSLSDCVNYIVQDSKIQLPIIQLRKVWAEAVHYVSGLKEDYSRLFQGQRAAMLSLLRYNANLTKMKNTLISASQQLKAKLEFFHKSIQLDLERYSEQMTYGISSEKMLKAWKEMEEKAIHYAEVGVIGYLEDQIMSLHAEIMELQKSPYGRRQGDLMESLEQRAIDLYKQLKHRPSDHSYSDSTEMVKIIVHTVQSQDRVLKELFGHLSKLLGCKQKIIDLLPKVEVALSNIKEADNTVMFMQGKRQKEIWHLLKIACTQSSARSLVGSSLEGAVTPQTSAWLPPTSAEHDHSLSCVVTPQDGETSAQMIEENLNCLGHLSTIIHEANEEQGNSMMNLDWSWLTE

The target of experiment [2] is T2, IKKβ (human (endogenous in FHC)) (UniProt O14920).
T2 sequence: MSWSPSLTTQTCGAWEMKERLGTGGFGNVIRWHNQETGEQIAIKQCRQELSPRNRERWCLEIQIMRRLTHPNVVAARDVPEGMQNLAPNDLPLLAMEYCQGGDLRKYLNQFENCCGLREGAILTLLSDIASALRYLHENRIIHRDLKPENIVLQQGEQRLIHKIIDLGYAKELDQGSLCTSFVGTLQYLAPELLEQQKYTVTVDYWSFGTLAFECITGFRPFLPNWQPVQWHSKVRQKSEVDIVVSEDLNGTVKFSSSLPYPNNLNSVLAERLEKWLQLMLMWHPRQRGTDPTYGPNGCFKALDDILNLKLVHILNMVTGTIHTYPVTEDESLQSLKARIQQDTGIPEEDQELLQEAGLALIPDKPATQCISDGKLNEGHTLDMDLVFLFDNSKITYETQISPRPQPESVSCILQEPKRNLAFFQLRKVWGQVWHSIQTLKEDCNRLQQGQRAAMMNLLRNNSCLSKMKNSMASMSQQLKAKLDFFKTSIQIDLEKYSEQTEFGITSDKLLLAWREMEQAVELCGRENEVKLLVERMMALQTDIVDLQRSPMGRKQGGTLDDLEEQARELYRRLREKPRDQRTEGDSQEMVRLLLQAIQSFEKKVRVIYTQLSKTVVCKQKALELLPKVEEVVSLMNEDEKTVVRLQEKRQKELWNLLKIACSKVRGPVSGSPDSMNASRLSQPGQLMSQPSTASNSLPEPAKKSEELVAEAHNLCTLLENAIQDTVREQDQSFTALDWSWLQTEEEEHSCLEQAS

Experiment [3] deals with T3, Phenazine biosynthesis-like domain-containing protein (PBLD) (UniProt P30039).
T3 sequence: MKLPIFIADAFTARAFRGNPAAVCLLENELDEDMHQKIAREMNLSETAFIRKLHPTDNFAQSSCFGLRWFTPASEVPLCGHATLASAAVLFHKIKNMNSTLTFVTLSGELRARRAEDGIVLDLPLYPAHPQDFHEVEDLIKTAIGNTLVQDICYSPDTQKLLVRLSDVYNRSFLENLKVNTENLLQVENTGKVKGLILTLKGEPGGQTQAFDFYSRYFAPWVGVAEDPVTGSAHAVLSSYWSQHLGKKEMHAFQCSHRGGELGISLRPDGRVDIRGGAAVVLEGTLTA

No constants are given. Whether binding was seen depends on the method and setting. Binding seen in cells or lysates may run through a third protein. Some results given as binding are weak or reduced against the parent protein; the word gives no strength.

B1: Phenazine biosynthesis-like domain-containing protein (PBLD) (protein, UniProt P30039 1-288)
chain: T3 sequence
For the molecule B1, the binding result in experiment [1] and in experiment [2] was “binds” each time.

B2: IKKβ (protein, UniProt O14920 1-756)
chain: T2 sequence
As to B2, in experiment [3], the binding entry is on record as “binds”.

(Values after article PMC8166876.)
